Data: the supplement of paper PMC7661543
The effect of the compound repeats well; differences between the knockouts mostly do not. Where a SMILES comes first, the peptide text is derived from it. The star is where a group is joined. Cbz = O=C(OCc1ccccc1)*

Test system: SKBR3
Assay: relative cell number vs DMSO control (72 h) (% of DMSO); higher = less growth inhibition (more cells)
Procedure: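 QMAP-Seq: a pool of 5 breast cancer cell lines (ZR-75-1, SKBR3, HCC-38, MDA-MB-231, BT-20), each carrying 12 doxycycline-inducible Cas9 sgRNA perturbations (11 knockouts plus non-targeting sgNT), was treated with compounds for 72 h at four 10-fold doses (10 nM-10 uM or 1 nM-1 uM range). Barcodes were amplified and sequenced, and cell number was interpolated from 293T spike-in standard curves. The result is expressed as % of the median of DMSO wells. Two biological replicates.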

CC(C)n1cnc2c(NCCc3ccc(O)cc3)nc(-c3csc4ccccc34)nc21 [StemRegenin1]
Conditions	relative cell number
sgRNA knockout: sgATF3, 10 nM	108
sgRNA knockout: sgATF3, 100 nM	112
sgRNA knockout: sgATF3, 1000 nM	95.9
sgRNA knockout: sgATF3, 10000 nM	48
sgRNA knockout: sgATF4, 10 nM	80.1
sgRNA knockout: sgATF4, 100 nM	96.1
sgRNA knockout: sgATF4, 1000 nM	100
sgRNA knockout: sgATF4, 10000 nM	37.9
sgRNA knockout: sgATF6, 10 nM	74.8
sgRNA knockout: sgATF6, 100 nM	105
sgRNA knockout: sgATF6, 1000 nM	94.7
sgRNA knockout: sgATF6, 10000 nM	42.4
sgRNA knockout: sgATG7, 10 nM	72.8
sgRNA knockout: sgATG7, 100 nM	106
sgRNA knockout: sgATG7, 1000 nM	80
sgRNA knockout: sgATG7, 10000 nM	44.3
sgRNA knockout: sgERN1, 10 nM	88.9
sgRNA knockout: sgERN1, 100 nM	99.4
sgRNA knockout: sgERN1, 1000 nM	78.3
sgRNA knockout: sgERN1, 10000 nM	42.9
sgRNA knockout: sgHSF1, 10 nM	69.9
sgRNA knockout: sgHSF1, 100 nM	99.5
sgRNA knockout: sgHSF1, 1000 nM	94.5
sgRNA knockout: sgHSF1, 10000 nM	41
sgRNA knockout: sgHSF2, 10 nM	76.8
sgRNA knockout: sgHSF2, 100 nM	89.6
sgRNA knockout: sgHSF2, 1000 nM	103
sgRNA knockout: sgHSF2, 10000 nM	38.6
sgRNA knockout: sgKEAP1, 10 nM	81.5
sgRNA knockout: sgKEAP1, 100 nM	105
sgRNA knockout: sgKEAP1, 1000 nM	94.6
sgRNA knockout: sgKEAP1, 10000 nM	43
sgRNA knockout: sgNFE2L2, 10 nM	73.2
sgRNA knockout: sgNFE2L2, 100 nM	96.9
sgRNA knockout: sgNFE2L2, 1000 nM	97.5
sgRNA knockout: sgNFE2L2, 10000 nM	42.4
sgRNA knockout: sgSLC35F2, 10 nM	78.8
sgRNA knockout: sgSLC35F2, 100 nM	77
sgRNA knockout: sgSLC35F2, 1000 nM	69.2
sgRNA knockout: sgSLC35F2, 10000 nM	37.1
sgRNA knockout: sgXBP1, 10 nM	88.1
sgRNA knockout: sgXBP1, 100 nM	97.3
sgRNA knockout: sgXBP1, 1000 nM	100
sgRNA knockout: sgXBP1, 10000 nM	36.9

CC(C)C[C@@H](C=O)NC(=O)[C@H](CC(C)C)NC(=O)[C@H](CC(C)C)NC(=O)OCc1ccccc1 [MG132] (Cbz-Leu-Leu-Leu-aldehyde)
Conditions	relative cell number
sgRNA knockout: sgATF3, 10 nM	107
sgRNA knockout: sgATF3, 100 nM	89.8
sgRNA knockout: sgATF3, 1000 nM	13.8
sgRNA knockout: sgATF3, 10000 nM	9.7
sgRNA knockout: sgATF4, 10 nM	101
sgRNA knockout: sgATF4, 100 nM	104
sgRNA knockout: sgATF4, 1000 nM	12.8
sgRNA knockout: sgATF4, 10000 nM	9.94
sgRNA knockout: sgATF6, 10 nM	99.1
sgRNA knockout: sgATF6, 100 nM	86.5
sgRNA knockout: sgATF6, 1000 nM	11
sgRNA knockout: sgATF6, 10000 nM	6.68
sgRNA knockout: sgATG7, 10 nM	81.2
sgRNA knockout: sgATG7, 100 nM	107
sgRNA knockout: sgATG7, 1000 nM	15.6
sgRNA knockout: sgATG7, 10000 nM	10.9
sgRNA knockout: sgERN1, 10 nM	99.9
sgRNA knockout: sgERN1, 100 nM	106
sgRNA knockout: sgERN1, 1000 nM	14.8
sgRNA knockout: sgERN1, 10000 nM	8.35
sgRNA knockout: sgHSF1, 10 nM	98.648
sgRNA knockout: sgHSF1, 100 nM	90.1
sgRNA knockout: sgHSF1, 1000 nM	12.1
sgRNA knockout: sgHSF1, 10000 nM	8.94
sgRNA knockout: sgHSF2, 10 nM	89.8
sgRNA knockout: sgHSF2, 100 nM	83.2
sgRNA knockout: sgHSF2, 1000 nM	11.5
sgRNA knockout: sgHSF2, 10000 nM	11.6
sgRNA knockout: sgKEAP1, 10 nM	88.32
sgRNA knockout: sgKEAP1, 100 nM	88.9
sgRNA knockout: sgKEAP1, 1000 nM	11.6
sgRNA knockout: sgKEAP1, 10000 nM	8.84
sgRNA knockout: sgNFE2L2, 10 nM	92.6
sgRNA knockout: sgNFE2L2, 100 nM	87.4
sgRNA knockout: sgNFE2L2, 1000 nM	14.7
sgRNA knockout: sgNFE2L2, 10000 nM	7.913
sgRNA knockout: sgSLC35F2, 10 nM	92.2
sgRNA knockout: sgSLC35F2, 100 nM	93.3
sgRNA knockout: sgSLC35F2, 1000 nM	12.4
sgRNA knockout: sgSLC35F2, 10000 nM	6.88
sgRNA knockout: sgXBP1, 10 nM	108
sgRNA knockout: sgXBP1, 100 nM	81.3
sgRNA knockout: sgXBP1, 1000 nM	14.7
sgRNA knockout: sgXBP1, 10000 nM	11.5

CC(C)(C)c1nc(-c2cccc(NS(=O)(=O)c3c(F)cccc3F)c2F)c(-c2ccnc(N)n2)s1 [Dabrafenib]
Conditions	relative cell number
sgRNA knockout: sgATF3, 10 nM	133
sgRNA knockout: sgATF3, 100 nM	103
sgRNA knockout: sgATF3, 1000 nM	94.3
sgRNA knockout: sgATF3, 10000 nM	114
sgRNA knockout: sgATF4, 10 nM	131
sgRNA knockout: sgATF4, 100 nM	102
sgRNA knockout: sgATF4, 1000 nM	85.1
sgRNA knockout: sgATF4, 10000 nM	114
sgRNA knockout: sgATF6, 10 nM	125
sgRNA knockout: sgATF6, 100 nM	120
sgRNA knockout: sgATF6, 1000 nM	84.9
sgRNA knockout: sgATF6, 10000 nM	97.2
sgRNA knockout: sgATG7, 10 nM	150
sgRNA knockout: sgATG7, 100 nM	125
sgRNA knockout: sgATG7, 1000 nM	80.5
sgRNA knockout: sgATG7, 10000 nM	132
sgRNA knockout: sgERN1, 10 nM	181
sgRNA knockout: sgERN1, 100 nM	114
sgRNA knockout: sgERN1, 1000 nM	94.1
sgRNA knockout: sgERN1, 10000 nM	95.8
sgRNA knockout: sgHSF1, 10 nM	133
sgRNA knockout: sgHSF1, 100 nM	104
sgRNA knockout: sgHSF1, 1000 nM	89.3
sgRNA knockout: sgHSF1, 10000 nM	91.1
sgRNA knockout: sgHSF2, 10 nM	137
sgRNA knockout: sgHSF2, 100 nM	107
sgRNA knockout: sgHSF2, 1000 nM	91
sgRNA knockout: sgHSF2, 10000 nM	102
sgRNA knockout: sgKEAP1, 10 nM	114
sgRNA knockout: sgKEAP1, 100 nM	110
sgRNA knockout: sgKEAP1, 1000 nM	69.5
sgRNA knockout: sgKEAP1, 10000 nM	105
sgRNA knockout: sgNFE2L2, 10 nM	152
sgRNA knockout: sgNFE2L2, 100 nM	114
sgRNA knockout: sgNFE2L2, 1000 nM	71.4
sgRNA knockout: sgNFE2L2, 10000 nM	122
sgRNA knockout: sgSLC35F2, 10 nM	123
sgRNA knockout: sgSLC35F2, 100 nM	114
sgRNA knockout: sgSLC35F2, 1000 nM	87.8
sgRNA knockout: sgSLC35F2, 10000 nM	85.9
sgRNA knockout: sgXBP1, 10 nM	156
sgRNA knockout: sgXBP1, 100 nM	111
sgRNA knockout: sgXBP1, 1000 nM	84
sgRNA knockout: sgXBP1, 10000 nM	108
